Drawing on paper PMC11967829, this text covers binding for 1 substance.

Protein sequences, listed by entry. Tags and fused reporters are not part of them.
UniProt P06733: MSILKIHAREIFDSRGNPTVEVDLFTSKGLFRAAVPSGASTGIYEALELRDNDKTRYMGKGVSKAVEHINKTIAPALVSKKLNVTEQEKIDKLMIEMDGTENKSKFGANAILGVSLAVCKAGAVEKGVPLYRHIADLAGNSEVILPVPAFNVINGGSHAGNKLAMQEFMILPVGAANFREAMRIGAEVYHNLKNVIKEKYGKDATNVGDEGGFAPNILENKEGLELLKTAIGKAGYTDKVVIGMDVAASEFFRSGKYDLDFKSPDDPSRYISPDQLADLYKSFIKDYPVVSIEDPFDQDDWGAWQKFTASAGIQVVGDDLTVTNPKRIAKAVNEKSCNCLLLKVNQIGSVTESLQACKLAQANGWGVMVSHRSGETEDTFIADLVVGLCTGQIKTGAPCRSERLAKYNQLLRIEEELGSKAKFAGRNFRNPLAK

For this assay, the target named is T1, NUDT13 immunoprecipitated from DLD-1 cells (human) (UniProt Q86X67).
T1 sequence: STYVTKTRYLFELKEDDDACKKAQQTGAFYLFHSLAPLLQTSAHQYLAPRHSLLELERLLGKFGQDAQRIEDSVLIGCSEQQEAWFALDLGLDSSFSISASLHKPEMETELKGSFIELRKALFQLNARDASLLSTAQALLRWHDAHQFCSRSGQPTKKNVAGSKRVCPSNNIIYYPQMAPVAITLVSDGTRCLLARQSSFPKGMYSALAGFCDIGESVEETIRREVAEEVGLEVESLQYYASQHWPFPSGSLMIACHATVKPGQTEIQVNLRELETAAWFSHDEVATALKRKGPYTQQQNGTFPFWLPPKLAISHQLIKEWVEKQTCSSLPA
Kind of assay: affinity purification with mass spectrometry; NUDT13 immunoprecipitation from protein extracts of DLD-1 cells, silver stain, mass spectrum analysis.

Results are given in words; binding and its absence hold for the method and conditions named. In cells and extracts the contact can be indirect. These calls come from enrichment with a bait or labelling near it, and not all partners need be listed.

Regarding ENO1 (from UniProt P06733 1-434), the binding result is “binds”.
